From PubChem BioAssay AID1508600 (Functional Genomics Laboratory (NCATS/FGL), 2020)
Screen size: about 53,000 sequences; about 3,700 (7%) were called active.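 The calls were made as follows: active = gene knockdowns whose robust z-score for IL-1 alpha signal is at least 2 or at most -2, so actives lie on both sides; inactive = the rest.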 The list shows a part of the results.

Assay: Components of the Cytosolic LPS Sensing Pathway: Gene Identification via Genome-wide siRNA Screen;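 also: robust z of the log signal after scaling to non-targeting control siRNA wells of the plate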
Details: RAW264.7 macrophages, IL-1a HTRF, actives lie on both sides, screened at 100 nM (by protocol), cells primed 5 h with Pam3CSK4 first
Summary of the method: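 Read-out: IL-1a HTRF on supernatant, divided by plate negative-control median ×100, log-transformed and converted to robust z-score. Cells were RAW264.7 given 100 nM siRNA, Pam3CSK4-primed 5 hours, then LipidA-transfected 24 hour.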

z-score, inactive:
GGUUGAACGAAGGGAAAAATT against Mak16 -1.89, GGGACUUGGAUCGAAUGGATT against Apeh 0.326, GCUAGGCAGUGAAGUUGAUTT against Atf4 0.755, GGAGAAUGUGUAGCUGUGATT against Lcn9 -1.94, GGCCAACCAAGUCUUCUGATT against Zwilch 0.383, GGAAAAGUUGCAUUUGGUCTT against Wdr17 -1.02, UCACUUGUACCAAAAAUGATT against Adcy1 -1.43, CCAGAAGCCAACUAUCUUUTT against Ppp1cb -0.0929, GCUCUUUCUAGCCCUUCCCTT against Spry3 -0.915, CCUGCAUUAGCAUGUUAGGTT against Gfral -0.483, CACUCUUGAUACAAAUGAGTT against Ifna16 -1.36, GGCUUGUGGCCUUAUCUGATT against Comtd1 0.164, GGAGAACAAAGUGCACUUGTT against Cpsf4l -0.972, GUAUCAGUGCCAGAGCUACTT against Lor 0.292, GGAUUGGAAAUGGCCACAGTT against Rbm12b1 1.06, GGAGCUCAUGAUCGUCAAATT against Krt88 0.87, GGAAAUGAAAACUUCUGUUTT against Nudt15 0.19, CCAAAUGUUUCGUUAAACUTT against Trf -0.189, GCAGAAGACAUCGUACCAATT against Mcm4 0.918, GCAGCUAGUGGUUUCUUUGTT against Stra6 0.458, GGGAGGUUACUAUGGAGACTT against Mia 1.68, CCAUGCUUGAGAGGAAUAATT against Hint3 -0.0161, GGACAGUUCUUACUUUACATT against Drd2 1.18, GCGCAAUGACGAUAAACUCTT against Sema3f 0.534, GGGAUAAGCAUGCUCAGUGTT against Mrgpra2b -1.42

z-score, active:
GGAUCUGAAGGUGAUGUCATT against H2-Q10 -2.72, GCCAAGCUUACUCAGAUUUTT against Mslnl 2.45, GCUUGACCCUACACUACAGTT against Olfr1121 2.47, GGAGUUUACUGAGUUUUAGTT against Prkaca 4.49, GGGCAUAGUGACCAGGUUATT against Fgf14 2.67
